For one molecule, binding results are on record in patent US10001489B2, “Method for constructing a novel affinity peptide library for binding immunoglobulin G based on a protein affinity model of protein A” (TIANJIN UNIVERSITY, priority 2012, dated 2018).

Amino acid sequences for entries named in this document (tags omitted). Residues count along the entry.
UniProt P02769, residues 25-607: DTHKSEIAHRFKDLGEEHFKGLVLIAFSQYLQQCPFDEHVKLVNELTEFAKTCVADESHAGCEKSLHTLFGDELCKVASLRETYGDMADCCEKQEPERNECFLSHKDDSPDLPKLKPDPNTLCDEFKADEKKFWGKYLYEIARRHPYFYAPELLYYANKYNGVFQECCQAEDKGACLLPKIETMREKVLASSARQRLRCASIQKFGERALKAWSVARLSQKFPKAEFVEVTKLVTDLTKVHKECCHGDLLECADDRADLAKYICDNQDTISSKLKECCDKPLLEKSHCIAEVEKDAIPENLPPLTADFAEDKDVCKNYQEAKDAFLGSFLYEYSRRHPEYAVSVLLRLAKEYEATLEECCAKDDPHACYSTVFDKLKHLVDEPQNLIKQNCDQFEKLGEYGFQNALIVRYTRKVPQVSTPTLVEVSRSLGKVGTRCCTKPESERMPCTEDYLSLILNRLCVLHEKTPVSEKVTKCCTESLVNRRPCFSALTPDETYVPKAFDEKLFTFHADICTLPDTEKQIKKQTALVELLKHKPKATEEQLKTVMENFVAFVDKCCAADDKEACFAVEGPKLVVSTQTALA

These are yes or no findings as the source states them, for the method shown. Some binding calls cover weakened binding; strength is not graded here.

The target in the experiment is bovine serum albumin (bovine) (UniProt P02769). Nature of the experiment: affinity chromatography, peptide immobilized on Thiopropyl Sepharose 6B, pulse injection of protein.

FYWHCLDE (Cys immobilized onto Thiopropyl Sepharose 6B gel via disulfide bond) [FYWHCLDE peptide ligand]: the binding entry is reported as “binds”.
